## Assay results

The results are deposited in PubChem (AID1159506; NCATS, 2015).

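Luminescence from an EWS-FLI1 target-promoter (NR0B1) reporter, set against a CMV-promoter reporter, two days after silencing single genes in TC32 Ewing sarcoma cells.
Each siRNA was applied at 20 nM.
A z-score of the log NR0B1-over-CMV signal, less the median of siRNAs with the same seed; more negative means a stronger specific loss of the NR0B1 reporter.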

The strongest results of the screen are mostly left out here.
Sequences are the guide (antisense) strand, without overhang.

{"sequence": "UCUAUGGUGCCGUCUAUUC", "gene": "RYR2", "seed-corrected z-score": "0.3564"}
{"sequence": "UCGACUUCAUCAGUCAUUC", "gene": "KIF15", "seed-corrected z-score": "0.4514"}
{"sequence": "UUUAUCACCUGCUUCUACC", "gene": "FLJ37786", "seed-corrected z-score": "-0.2272"}
{"sequence": "UGCUUGACACUUAUACGGC", "gene": "ZNF57", "seed-corrected z-score": "-0.1472"}
{"sequence": "UUCAGGGCCUUCACUAUGC", "gene": "PRDX5", "seed-corrected z-score": "-0.7692"}
{"sequence": "AUUCAACUCAGCAUUGUUC", "gene": "CPB1", "seed-corrected z-score": "-0.7324"}
{"sequence": "UAACCCAUCACUGUCAGGC", "gene": "ARHGEF17", "seed-corrected z-score": "0.4601"}
{"sequence": "UGAACAACGAGGUAGCAGC", "gene": "NSUN7", "seed-corrected z-score": "1.745"}
{"sequence": "UGCAGACCCAGGCUAACUC", "gene": "C7orf76", "seed-corrected z-score": "0.2142"}
{"sequence": "AAACUGACCAGACUCGUUA", "gene": "TRAM1L1", "seed-corrected z-score": "-1.478"}
{"sequence": "UUUCAUAAGAACUUUAGGU", "gene": "RPL34P34", "seed-corrected z-score": "0.01185"}
{"sequence": "UCUUGUAUCCGUUCAAACU", "gene": "NFE4", "seed-corrected z-score": "0.09134"}
{"sequence": "UCCUGGUAGACGAUGUUGA", "gene": "SCNN1D", "seed-corrected z-score": "-0.1816"}
{"sequence": "UAUUCCGAUAGUGCAAAUC", "gene": "TRPM7", "seed-corrected z-score": "-0.2023"}
{"sequence": "UCAUUUUAACCCGCUCUGC", "gene": "DNAJC2", "seed-corrected z-score": "1.58"}
{"sequence": "ACAGGAUAAACAGCUAGGG", "gene": "YIPF6", "seed-corrected z-score": "0.3144"}
{"sequence": "AAUCCACUAAUGCACAUCC", "gene": "TSEN54", "seed-corrected z-score": "-0.1729"}
{"sequence": "UUUCGUAAAAGGCCUAGGG", "gene": "RAG1", "seed-corrected z-score": "0.215"}
{"sequence": "UCUAGCAUAAAGUACCACC", "gene": "C12orf4", "seed-corrected z-score": "-0.07918"}
{"sequence": "UUACUAAUCUUUGAUGUAU", "gene": "NTS", "seed-corrected z-score": "-0.2623"}
{"sequence": "UGUAUAACAACUCAUUAUC", "gene": "EDEM1", "seed-corrected z-score": "0.5963"}
{"sequence": "UUCCGAAAGAUAUUCCAGC", "gene": "CNBD2", "seed-corrected z-score": "0.1329"}
{"sequence": "UAAUCACCAAACAUAGGCG", "gene": "ALG6", "seed-corrected z-score": "-0.1406"}
{"sequence": "UUCAGUUUUAUUAGGUAUU", "gene": "ANKRD30BP3", "seed-corrected z-score": "0.5372"}
{"sequence": "UUUGGGUAAGCAUCAGUAC", "gene": "SNAP29", "seed-corrected z-score": "-0.01121"}
{"sequence": "AAUCGUAUCAGUUCCGAAC", "gene": "DSG4", "seed-corrected z-score": "0.3485"}
{"sequence": "UGAUUAUCAACCACCGAGC", "gene": "SLC22A10", "seed-corrected z-score": "0.2531"}
{"sequence": "UGAUCCACAAAGUGUAAGG", "gene": "KRTAP9-4", "seed-corrected z-score": "-0.2593"}
{"sequence": "UUGACUUUCAUAGUCUUCC", "gene": "CLCC1", "seed-corrected z-score": "0.4224"}

Repeated from the top, 3 entries:

- UCUAUGGUGCCGUCUAUUC against RYR2 : seed-corrected z-score 0.3564
- UCGACUUCAUCAGUCAUUC against KIF15 : seed-corrected z-score 0.4514
- UUUAUCACCUGCUUCUACC against FLJ37786 : seed-corrected z-score -0.2272